Measured values as given in patent publication US20170298051A1, “ACTIVATOR OF ADIPONECTIN RECEPTOR” (THE UNIVERSITY OF TOKYO, priority 2013, published 2017).

Test system: HF diet-induced obese mice
Experiment: Oral glucose tolerance test and insulin tolerance in HF diet-induced obese mice
Format: in vivo
Conditions: oral 50 mg/kg, 10 days
Experimental: The original Adipor1^+/−/Adipor2^+/− mice (C57BL/6 and 129/Sv mixed background)^a were backcrossed with C57B1/6 mice more than seven times. All experiments in this study were conducted on male littermates.
Mice were 6-10 week of age at the time of the experiment. They were housed in cages and maintained on a 12 hr light-dark cycle.
Plasma glucose levels were determined by using a glucose B-test (Wako Pure Chemical Industries). Plasma insulin was measured with an insulin immunoassay (Shibayagi). Plasma NEFAs (Wako Pure Chemical Industries) were assayed by enzymatic methods.
The oral glucose tolerance test (OGTT) and insulin tolerance test (ITT) were conducted as previously described^a,b with slight modifications. The areas of the glucose and insulin curves were calculated by multiplying the cumulative mean height of the glucose values (1 mg/ml=1 cm) and insulin values (1 ng/ml=1 cm), respectively, by time (60 min=1 cm)^c,a. The insulin resistance index was calculated from the product of the areas of glucose and insulin×10^−2 in the glucose tolerance test. The results are expressed as the percentage of the value respect to control littermates.

Question: Which body weight does the source give for `O=C(COc1ccc(C(=O)c2ccccc2)cc1)NC1CCN(Cc2ccccc2)CC1` [Compound 73, 2-(4-benzoyl-phenoxy)-N-(1-benzylpiperidin-4-yl)acetamide] here?
Answer: did not significantly affect body weight

Question: What about the food intake of the same compound?
Answer: did not significantly affect
